According to publication PMC11068011 (Science Advances, 2024):
Positions count from the first letter of the chain named. These are yes or no findings as the source states them, for the method shown. Binding seen in cells or lysates may run through a third protein. Some results given as binding are weak or reduced against the parent protein; the word gives no strength. For some of these results: Sequences can lack the tags named with a protein. Values belong to the molecule of their own block, whether it stands above or below them.

Sequences of proteins named here, by UniProt entry; tags and fusion partners are left off.
UniProt Q6ZNE5: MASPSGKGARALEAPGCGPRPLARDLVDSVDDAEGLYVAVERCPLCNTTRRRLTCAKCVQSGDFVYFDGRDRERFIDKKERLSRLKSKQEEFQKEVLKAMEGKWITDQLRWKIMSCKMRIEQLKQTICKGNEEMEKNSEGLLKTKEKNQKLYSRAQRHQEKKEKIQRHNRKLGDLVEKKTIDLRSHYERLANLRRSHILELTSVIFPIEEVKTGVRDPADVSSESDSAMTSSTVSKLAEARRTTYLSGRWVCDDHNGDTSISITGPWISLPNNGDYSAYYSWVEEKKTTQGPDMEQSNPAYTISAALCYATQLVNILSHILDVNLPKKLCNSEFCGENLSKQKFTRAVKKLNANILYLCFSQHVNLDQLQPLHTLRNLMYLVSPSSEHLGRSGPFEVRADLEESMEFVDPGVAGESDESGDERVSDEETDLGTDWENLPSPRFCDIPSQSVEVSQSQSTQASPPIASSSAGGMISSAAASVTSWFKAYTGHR

How the values were obtained:
[1] = biological target: ATG14L, endogenous in HeLa cells (human (endogenous in HeLa)) (UniProt Q6ZNE5); assay: co-IP; Endogenous ATG14L immunoprecipitated (mouse anti-ATG14L, Dynabeads Protein G) from control, p37 KO or p37-Clover-overexpressing HeLa cells; 20 mM tris pH 7.4, 2 mM MgCl2, 200 mM NaCl, 0.5% NP-40
[2] = biological target: T1, p47 ∆UBA (46 to 370), FLAG-tagged (human) (UniProt Q9UNZ2); assay: co-IP; Anti-FLAG M2 magnetic beads, 1 hour at 4°C, from lysates of HeLa cells expressing FLAG-tagged p47 (WT or mutant) and p37-Clover; 50 mM tris pH 7.4, 2 mM MgCl2, 150 mM NaCl, 0.5% NP-40, 10% glycerol; the p47-p37 interaction was also seen in VCP-depleted cells (fig. S2C)
T1 sequence: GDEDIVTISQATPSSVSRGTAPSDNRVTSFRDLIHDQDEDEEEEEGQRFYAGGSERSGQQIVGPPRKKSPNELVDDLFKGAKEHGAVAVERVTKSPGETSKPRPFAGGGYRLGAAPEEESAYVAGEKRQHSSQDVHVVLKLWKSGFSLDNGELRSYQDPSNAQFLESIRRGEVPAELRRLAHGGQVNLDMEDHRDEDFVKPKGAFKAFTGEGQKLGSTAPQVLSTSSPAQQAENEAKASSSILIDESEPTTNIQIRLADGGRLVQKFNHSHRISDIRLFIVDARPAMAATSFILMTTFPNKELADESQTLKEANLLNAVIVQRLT

[3] = biological target: T2, FLAG-tagged full-length p47 (wild type) (human) (UniProt Q9UNZ2); assay: as above
T2 sequence: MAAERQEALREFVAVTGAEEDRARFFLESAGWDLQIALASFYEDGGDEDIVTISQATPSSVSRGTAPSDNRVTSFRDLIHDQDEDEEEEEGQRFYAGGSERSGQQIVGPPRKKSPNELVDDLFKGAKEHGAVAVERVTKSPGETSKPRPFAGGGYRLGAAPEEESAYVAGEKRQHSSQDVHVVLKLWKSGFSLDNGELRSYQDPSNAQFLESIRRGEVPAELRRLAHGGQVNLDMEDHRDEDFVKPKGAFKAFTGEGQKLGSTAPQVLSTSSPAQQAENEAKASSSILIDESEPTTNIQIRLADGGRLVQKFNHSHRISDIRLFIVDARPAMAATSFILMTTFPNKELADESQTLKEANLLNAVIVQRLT

[4] = biological target: T3, p47 V15A/L34A/Y42A (VLY) mutant, FLAG-tagged (human) (UniProt Q9UNZ2); assay: as above
T3 sequence: T2 sequence with V15A, L34A, Y42A

binding [1]: binds
Molecule: Valosin-containing protein (VCP), endogenous in HeLa cells (from UniProt P55072 1-806)

binding [2]: binds
binding [3]: binds
binding [4]: binds
B1: purified WT p37 (natural protein, human, UniProt Q14CS0 1-331, looked up)
chain: MAEGGGPEPGEQERRSSGPRPPSARDLQLALAELYEDEVKCKSSKSNRPKATVFKSPRTPPQRFYSSEHEYSGLNIVRPSTGKIVNELFKEAREHGAVPLNEATRASGDDKSKSFTGGGYRLGSSFCKRSEYIYGENQLQDVQILLKLWSNGFSLDDGELRPYNEPTNAQFLESVKRGEIPLELQRLVHGGQVNLDMEDHQDQEYIKPRLRFKAFSGEGQKLGSLTPEIVSTPSSPEEEDKSILNAVVLIDDSVPTTKIQIRLADGSRLIQRFNSTHRILDVRNFIVQSRPEFAALDFILVTSFPNKELTDESLTLLEADILNTVLLQQLK
notes: p37 (UBXN2B), human, wild type, from pGEX-6P-1 p37; also called p37 WT; p37WT; source: E. coli Rosetta 2 BL21 (DE3), purified (glutathione sepharose, eluted by PreScission cleavage)
